The source of these data is paper doi:10.1101/2020.10.29.359851.

The chains behind the UniProt entries cited, without tags or fusion partners. Where a name states a change or a piece, a line headed by the entry shows the natural chain unless it says otherwise.
UniProt P06213: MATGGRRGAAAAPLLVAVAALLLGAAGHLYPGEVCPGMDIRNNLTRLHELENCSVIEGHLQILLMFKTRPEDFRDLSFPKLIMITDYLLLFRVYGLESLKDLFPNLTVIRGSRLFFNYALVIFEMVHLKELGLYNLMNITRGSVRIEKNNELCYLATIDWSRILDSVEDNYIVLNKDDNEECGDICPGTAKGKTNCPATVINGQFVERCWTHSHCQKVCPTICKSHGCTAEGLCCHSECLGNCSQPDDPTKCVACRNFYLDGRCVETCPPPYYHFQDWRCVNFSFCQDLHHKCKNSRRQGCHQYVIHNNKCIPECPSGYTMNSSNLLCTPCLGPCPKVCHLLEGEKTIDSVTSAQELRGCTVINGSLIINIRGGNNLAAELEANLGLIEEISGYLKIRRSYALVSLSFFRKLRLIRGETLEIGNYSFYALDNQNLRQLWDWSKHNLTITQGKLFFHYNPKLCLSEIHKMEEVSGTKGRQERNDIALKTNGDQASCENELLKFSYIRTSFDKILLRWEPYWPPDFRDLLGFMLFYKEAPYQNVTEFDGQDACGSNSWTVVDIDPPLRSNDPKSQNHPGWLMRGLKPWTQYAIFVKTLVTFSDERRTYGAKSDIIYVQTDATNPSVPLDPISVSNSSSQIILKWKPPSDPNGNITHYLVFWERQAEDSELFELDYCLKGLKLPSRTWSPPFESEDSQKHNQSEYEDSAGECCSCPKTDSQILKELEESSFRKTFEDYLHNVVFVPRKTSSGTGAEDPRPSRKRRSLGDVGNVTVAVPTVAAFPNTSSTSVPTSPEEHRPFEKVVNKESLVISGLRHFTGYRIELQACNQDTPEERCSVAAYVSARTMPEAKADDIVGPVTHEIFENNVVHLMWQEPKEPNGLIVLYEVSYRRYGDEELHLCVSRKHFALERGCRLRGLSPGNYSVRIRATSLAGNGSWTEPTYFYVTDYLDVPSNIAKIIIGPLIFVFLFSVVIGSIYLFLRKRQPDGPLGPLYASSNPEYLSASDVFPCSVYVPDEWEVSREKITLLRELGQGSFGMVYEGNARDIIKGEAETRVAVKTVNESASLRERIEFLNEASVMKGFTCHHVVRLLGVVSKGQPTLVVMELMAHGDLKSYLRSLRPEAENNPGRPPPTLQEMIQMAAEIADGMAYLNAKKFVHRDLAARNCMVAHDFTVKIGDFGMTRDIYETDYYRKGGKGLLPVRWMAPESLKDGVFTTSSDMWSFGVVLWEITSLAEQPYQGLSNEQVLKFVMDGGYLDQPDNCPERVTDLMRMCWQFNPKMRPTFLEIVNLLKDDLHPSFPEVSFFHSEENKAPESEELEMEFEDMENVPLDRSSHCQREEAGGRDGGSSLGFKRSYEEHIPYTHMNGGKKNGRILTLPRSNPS

Results are given in words; binding and its absence hold for the method and conditions named. In cells and extracts the contact can be indirect. Some binding calls cover weakened binding; strength is not graded here. Tags and fused reporters may be left off the sequences shown.

Test [1] concerns the target T1, 3xFlag-BBS1-GFP (human BBS1, expressed from CD615-3xFlag-BBS1-GFP) (human) (UniProt Q8NFJ9).
T1 sequence: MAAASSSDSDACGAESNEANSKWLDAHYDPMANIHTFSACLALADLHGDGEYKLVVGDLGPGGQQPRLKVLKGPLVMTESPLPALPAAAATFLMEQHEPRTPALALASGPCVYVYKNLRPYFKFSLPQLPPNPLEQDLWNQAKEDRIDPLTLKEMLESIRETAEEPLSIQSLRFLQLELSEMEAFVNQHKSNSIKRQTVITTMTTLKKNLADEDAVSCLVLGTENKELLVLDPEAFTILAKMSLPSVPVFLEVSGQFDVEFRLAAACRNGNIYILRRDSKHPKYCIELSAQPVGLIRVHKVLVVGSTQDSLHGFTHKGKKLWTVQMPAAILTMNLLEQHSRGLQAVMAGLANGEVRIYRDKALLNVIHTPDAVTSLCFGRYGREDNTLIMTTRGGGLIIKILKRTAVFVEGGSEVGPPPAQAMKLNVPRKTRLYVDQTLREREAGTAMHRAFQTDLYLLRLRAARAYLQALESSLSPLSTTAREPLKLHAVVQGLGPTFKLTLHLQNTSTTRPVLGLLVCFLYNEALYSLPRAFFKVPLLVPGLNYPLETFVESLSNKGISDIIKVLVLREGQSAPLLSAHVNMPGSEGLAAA
As to the kind of experiment: co-IP.

Test [2] has as its target T2, 3xFlag-BBS10-GFP (human BBS10, expressed from CD615-3xFlag-BBS10-GFP) (human) (UniProt Q8TAM1).
T2 sequence: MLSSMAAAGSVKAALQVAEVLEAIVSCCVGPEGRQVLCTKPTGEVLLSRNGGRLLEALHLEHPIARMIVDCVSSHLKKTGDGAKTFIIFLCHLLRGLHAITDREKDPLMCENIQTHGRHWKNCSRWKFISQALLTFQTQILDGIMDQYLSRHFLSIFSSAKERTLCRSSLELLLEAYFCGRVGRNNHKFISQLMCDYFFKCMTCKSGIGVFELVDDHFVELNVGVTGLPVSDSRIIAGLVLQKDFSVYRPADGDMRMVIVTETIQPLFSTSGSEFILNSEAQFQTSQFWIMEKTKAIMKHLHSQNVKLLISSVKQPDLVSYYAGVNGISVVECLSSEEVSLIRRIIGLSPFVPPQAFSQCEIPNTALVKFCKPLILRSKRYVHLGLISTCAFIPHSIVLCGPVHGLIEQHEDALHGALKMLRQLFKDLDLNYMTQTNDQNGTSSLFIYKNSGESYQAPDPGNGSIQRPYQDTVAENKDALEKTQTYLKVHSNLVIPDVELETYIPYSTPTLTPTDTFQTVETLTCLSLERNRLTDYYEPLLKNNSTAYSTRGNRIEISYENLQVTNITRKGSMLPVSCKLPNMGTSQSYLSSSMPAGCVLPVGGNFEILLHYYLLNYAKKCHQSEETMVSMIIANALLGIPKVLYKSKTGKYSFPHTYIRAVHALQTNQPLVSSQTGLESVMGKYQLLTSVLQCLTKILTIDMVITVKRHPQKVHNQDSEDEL
The test is described as follows: co-IP.

With “insulin receptor (from UniProt P06213 28-758; P06213 763-1382)”, the binding result in test [1] and in test [2] was “binds” throughout.
